{"sequences": {"note": "The chains behind the UniProt entries cited, without tags or fusion partners.", "UniProt Q9Y463, whole entry": "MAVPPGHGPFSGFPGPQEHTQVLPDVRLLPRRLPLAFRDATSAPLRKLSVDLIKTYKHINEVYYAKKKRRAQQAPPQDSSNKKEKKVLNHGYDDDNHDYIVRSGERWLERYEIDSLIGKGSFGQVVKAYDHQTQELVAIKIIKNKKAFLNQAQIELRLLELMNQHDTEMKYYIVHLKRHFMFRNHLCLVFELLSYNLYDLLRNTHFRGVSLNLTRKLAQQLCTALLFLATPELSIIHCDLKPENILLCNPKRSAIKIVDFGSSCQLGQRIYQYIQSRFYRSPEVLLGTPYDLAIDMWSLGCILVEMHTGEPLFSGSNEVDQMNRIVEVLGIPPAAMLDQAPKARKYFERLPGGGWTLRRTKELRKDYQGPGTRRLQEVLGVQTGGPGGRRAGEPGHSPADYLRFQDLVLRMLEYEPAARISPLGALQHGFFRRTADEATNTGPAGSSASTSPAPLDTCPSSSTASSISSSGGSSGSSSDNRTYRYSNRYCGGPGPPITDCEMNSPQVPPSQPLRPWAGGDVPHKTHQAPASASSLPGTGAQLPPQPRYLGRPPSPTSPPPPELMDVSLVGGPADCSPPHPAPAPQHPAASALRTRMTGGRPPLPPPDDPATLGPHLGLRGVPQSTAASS"}, "source": "paper PMC8708872", "about": "“Discovery of a Novel Template, 7-Substituted 7-Deaza-4′-Thioadenosine Derivatives as Multi-Kinase Inhibitors” (Pharmaceuticals, 2021)", "molecular_target": "T1, DYRK1B (Homo sapiens, UniProt Q9Y463)", "T1 construct": "purchased Eurofins DiscoverX Corporation", "test": "Kinase inhibition profile, KINOMEscan 11-point dose response", "format": "binding"}
{"compound": "COc1ccc2c(c1)[nH]c1c(C)nccc12", "note": "[Harmine, reference compound]", "values": [{"measurement": "IC50", "setting": "11-point 3-fold serial dilution", "value": 85, "unit": "nM"}, {"measurement": "Ki", "setting": "by Cheng-Prusoff equation", "value": 85, "unit": "nM"}]}
